Eight targets from the supplement of paper PMC11732987, “Enantioselective OTUD7B fragment discovery through chemoproteomics screening and high-throughput optimisation” (Communications Chemistry, 2025) can be followed below.

Chains of the proteins cited; added tags and fusions are not shown. Lines headed by an entry give the natural chain unless they say otherwise; changes in a name come on top.
UniProt Q9NX07: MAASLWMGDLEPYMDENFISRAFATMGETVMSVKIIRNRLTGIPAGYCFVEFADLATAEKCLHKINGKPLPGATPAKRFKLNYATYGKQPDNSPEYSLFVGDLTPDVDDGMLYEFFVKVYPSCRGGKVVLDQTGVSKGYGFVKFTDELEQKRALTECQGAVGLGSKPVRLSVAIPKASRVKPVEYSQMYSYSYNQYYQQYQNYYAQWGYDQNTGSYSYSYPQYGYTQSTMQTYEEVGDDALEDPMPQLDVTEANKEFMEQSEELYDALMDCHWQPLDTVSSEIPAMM
UniProt Q5VYS8: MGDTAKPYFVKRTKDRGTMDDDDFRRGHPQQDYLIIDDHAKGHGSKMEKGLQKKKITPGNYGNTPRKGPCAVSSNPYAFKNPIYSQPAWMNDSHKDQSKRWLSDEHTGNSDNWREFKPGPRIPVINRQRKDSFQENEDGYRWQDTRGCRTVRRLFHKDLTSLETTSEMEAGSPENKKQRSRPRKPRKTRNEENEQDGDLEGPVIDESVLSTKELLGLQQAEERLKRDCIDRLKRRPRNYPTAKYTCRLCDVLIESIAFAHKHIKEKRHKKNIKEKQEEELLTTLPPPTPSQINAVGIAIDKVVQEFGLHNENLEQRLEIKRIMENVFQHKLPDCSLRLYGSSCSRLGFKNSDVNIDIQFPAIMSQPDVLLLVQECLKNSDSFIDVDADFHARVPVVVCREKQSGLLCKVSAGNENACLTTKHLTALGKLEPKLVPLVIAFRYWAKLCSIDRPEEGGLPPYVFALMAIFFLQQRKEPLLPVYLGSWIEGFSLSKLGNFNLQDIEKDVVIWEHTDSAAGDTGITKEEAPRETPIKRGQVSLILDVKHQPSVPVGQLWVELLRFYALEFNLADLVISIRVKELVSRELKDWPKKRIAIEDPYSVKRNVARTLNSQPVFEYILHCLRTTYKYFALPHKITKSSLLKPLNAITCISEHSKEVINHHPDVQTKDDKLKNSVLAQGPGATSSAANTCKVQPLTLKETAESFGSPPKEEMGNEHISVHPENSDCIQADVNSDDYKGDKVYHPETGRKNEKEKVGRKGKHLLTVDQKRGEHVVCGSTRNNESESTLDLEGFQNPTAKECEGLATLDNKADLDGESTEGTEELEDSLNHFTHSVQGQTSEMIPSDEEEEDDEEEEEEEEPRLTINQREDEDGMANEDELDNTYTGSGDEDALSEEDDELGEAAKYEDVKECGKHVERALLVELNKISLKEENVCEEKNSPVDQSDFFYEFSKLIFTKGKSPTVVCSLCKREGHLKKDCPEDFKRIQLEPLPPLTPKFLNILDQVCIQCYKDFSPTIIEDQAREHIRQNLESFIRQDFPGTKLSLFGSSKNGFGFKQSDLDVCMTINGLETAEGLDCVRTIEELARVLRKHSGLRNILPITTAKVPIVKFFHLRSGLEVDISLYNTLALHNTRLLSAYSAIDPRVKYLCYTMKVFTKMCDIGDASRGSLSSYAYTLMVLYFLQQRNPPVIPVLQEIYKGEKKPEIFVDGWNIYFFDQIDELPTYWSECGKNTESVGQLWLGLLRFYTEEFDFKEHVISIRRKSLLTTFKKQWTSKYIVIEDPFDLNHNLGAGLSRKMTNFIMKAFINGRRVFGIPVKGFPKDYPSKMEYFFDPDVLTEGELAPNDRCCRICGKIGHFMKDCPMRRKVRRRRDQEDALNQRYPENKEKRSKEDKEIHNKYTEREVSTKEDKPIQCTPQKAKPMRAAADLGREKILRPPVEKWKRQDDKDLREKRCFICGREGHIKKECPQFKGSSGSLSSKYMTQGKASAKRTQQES
UniProt Q9Y4A5: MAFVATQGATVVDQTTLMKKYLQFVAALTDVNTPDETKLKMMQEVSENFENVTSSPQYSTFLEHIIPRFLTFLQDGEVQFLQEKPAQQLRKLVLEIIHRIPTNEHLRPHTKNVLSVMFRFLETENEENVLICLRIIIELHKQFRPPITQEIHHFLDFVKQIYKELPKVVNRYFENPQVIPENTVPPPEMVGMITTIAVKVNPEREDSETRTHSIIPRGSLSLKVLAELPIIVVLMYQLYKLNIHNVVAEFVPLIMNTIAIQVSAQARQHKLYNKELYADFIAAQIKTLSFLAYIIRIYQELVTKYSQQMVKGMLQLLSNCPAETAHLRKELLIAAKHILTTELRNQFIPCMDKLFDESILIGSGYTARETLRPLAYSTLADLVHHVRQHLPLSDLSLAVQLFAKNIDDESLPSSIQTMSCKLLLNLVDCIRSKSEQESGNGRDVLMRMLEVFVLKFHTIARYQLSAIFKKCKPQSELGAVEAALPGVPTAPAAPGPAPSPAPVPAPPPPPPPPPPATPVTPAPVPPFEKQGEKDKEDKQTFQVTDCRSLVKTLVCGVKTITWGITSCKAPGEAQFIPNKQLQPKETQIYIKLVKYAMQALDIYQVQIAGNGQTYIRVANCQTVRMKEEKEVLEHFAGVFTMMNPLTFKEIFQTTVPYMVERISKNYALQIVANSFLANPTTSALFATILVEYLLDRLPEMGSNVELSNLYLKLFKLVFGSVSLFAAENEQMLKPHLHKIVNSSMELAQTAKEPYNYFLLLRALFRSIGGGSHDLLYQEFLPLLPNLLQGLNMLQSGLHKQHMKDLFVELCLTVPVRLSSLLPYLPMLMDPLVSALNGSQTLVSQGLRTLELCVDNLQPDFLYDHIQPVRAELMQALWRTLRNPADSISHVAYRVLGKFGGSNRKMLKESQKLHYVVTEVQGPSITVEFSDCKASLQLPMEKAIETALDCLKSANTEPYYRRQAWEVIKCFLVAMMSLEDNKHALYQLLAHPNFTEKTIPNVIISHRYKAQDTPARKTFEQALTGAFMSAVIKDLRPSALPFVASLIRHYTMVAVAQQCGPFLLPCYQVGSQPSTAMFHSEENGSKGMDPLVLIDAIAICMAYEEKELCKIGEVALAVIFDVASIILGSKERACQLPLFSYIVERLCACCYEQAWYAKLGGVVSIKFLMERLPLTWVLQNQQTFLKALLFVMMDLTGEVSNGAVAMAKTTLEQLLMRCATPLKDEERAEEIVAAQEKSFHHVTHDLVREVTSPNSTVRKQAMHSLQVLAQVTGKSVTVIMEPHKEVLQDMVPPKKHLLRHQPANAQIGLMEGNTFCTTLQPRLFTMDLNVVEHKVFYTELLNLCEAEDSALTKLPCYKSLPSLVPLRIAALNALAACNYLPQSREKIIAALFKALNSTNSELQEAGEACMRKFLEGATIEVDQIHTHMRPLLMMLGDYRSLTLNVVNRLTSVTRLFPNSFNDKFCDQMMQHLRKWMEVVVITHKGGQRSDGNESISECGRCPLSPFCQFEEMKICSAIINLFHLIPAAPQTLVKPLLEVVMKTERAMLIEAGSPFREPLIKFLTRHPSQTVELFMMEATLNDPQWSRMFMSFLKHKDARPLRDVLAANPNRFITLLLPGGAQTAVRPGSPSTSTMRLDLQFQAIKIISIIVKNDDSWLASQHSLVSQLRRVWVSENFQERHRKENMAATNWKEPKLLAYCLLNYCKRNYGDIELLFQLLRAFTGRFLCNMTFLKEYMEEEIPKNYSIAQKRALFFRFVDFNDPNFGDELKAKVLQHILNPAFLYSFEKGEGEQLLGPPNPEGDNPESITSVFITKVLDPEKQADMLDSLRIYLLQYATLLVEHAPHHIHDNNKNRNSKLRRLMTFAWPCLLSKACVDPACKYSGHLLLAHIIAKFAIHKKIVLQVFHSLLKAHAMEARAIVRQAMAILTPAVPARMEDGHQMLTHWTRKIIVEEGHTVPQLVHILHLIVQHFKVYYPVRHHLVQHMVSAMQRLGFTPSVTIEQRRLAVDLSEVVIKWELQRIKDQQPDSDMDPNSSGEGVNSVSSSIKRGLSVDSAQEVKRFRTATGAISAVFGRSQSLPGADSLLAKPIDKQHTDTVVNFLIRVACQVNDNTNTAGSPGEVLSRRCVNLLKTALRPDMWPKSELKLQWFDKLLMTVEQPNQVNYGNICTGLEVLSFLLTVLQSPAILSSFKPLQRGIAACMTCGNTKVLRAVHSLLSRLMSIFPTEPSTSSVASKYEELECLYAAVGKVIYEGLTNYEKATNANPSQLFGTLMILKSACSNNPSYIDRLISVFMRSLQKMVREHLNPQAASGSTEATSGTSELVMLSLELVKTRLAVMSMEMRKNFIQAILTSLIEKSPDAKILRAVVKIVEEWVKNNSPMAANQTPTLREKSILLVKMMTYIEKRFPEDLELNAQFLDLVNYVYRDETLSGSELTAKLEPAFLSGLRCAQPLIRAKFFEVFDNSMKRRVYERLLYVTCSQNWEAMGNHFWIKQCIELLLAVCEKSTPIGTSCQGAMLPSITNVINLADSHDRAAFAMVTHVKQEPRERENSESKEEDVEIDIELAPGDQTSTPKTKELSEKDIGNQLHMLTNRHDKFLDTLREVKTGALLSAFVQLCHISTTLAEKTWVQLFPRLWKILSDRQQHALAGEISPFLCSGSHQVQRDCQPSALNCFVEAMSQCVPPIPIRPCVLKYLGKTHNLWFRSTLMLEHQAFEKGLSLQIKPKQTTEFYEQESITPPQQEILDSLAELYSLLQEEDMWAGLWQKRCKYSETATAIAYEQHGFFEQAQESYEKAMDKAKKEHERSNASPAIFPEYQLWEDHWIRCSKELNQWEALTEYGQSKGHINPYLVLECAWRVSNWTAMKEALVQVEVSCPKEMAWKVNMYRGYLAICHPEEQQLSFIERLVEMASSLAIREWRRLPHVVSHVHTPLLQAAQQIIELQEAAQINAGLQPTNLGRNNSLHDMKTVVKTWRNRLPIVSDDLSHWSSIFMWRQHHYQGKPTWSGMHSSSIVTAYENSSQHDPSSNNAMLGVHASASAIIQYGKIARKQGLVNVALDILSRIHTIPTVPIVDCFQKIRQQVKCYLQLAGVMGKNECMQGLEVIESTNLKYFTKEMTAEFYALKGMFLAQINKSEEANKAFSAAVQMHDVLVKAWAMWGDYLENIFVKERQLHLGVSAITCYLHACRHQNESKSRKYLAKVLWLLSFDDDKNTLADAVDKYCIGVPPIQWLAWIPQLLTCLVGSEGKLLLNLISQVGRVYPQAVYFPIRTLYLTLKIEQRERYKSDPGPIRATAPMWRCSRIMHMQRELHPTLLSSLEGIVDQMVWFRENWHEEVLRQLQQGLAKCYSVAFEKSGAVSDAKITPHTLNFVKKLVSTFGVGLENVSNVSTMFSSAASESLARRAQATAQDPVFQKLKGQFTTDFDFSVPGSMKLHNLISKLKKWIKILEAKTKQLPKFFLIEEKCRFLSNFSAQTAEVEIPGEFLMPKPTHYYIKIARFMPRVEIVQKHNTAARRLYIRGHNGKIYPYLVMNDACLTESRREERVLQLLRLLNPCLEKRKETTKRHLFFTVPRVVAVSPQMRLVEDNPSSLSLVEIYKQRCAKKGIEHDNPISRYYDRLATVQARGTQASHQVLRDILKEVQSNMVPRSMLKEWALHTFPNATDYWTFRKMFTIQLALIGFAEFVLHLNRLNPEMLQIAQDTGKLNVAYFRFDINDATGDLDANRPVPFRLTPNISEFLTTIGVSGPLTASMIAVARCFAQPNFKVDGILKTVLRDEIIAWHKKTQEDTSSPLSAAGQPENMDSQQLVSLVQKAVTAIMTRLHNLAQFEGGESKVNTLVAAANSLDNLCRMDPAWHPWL
UniProt Q96CW5: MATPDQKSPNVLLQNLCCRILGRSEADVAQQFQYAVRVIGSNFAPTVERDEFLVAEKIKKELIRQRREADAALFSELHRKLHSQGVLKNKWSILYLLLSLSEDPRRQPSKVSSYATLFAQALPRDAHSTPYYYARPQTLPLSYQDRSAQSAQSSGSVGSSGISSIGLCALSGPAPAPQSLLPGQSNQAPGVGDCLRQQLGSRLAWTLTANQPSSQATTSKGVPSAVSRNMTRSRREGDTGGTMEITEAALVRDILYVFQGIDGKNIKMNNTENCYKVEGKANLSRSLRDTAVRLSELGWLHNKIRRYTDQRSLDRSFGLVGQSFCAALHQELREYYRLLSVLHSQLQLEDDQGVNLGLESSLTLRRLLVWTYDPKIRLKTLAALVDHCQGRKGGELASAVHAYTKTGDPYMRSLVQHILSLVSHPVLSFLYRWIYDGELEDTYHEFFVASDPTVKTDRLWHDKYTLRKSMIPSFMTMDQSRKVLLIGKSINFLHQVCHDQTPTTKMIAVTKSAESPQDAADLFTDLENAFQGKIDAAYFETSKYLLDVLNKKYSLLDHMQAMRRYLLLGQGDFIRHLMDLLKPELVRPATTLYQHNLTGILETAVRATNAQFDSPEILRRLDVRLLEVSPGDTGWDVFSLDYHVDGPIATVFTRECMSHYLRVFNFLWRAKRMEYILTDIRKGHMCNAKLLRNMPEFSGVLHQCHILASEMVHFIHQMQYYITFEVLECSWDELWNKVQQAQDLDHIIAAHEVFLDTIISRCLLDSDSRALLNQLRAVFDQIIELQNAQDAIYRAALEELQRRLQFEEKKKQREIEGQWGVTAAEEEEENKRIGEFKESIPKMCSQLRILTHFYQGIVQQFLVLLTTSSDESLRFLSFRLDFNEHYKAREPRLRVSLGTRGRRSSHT

Compound in assay [1]: ClCC(=O)N[C@@H]1CCCc2ccccc12
In words: log2 mean competition ratio of IA-DTB cysteine labelling (DMSO/compound) (log2 ratio); higher = stronger cysteine engagement by compound. The settings on record: treatment time: 4 h, cell line lysate: HEK293T. The protocol: (§1)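 IA-DTB competitive cysteine chemoproteomics in HEK293T RIPA lysate. Lysates were treated with compound 29 or 30 at 50 or 200 µM for 4 h, then IA-DTB (500 µM, 1 h), trypsin-digested, NeutrAvidin-enriched and analysed by diaPASEF. Competition ratio = intensity DMSO / intensity compound (n=4 treated, n=64 DMSO); binding: mean log2 CR ≥ 1 and p ≤ 0.05 plus QC filters. Target is the cysteine site.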

Compound in assay [2]: ClCC(=O)N[C@H]1CCCc2ccccc12
Described as above. The settings on record: treatment time: 4 h, cell line lysate: HEK293T. On the procedure: as §1

The other results are listed elsewhere or left out. The data scatter; read single values as rough.

Regarding TTC30A C454, the “log2 mean competition ratio” value in assay [1] (50 µM) was 0.129; in assay [1] (200 µM) it was 0.0125; in assay [2] (50 µM), -0.365; in assay [2] (200 µM) it was -0.108.

With TRNAU1AP C157 (UniProt Q9NX07), the “log2 mean competition ratio” value is 0.0876 in assay [1] (50 µM), 0.147 in assay [1] (200 µM), -0.388 in assay [2] (50 µM) and -0.227 in assay [2] (200 µM).

Take TUT7 C417 (UniProt Q5VYS8): the “log2 mean competition ratio” value in assay [1] (50 µM) was 0.0742; in assay [1] (200 µM) it was 0.209; in assay [2] (50 µM), -0.203; in assay [2] (200 µM), 0.28.

For TRRAP C3098 (UniProt Q9Y4A5), the “log2 mean competition ratio” value was 0.317 in assay [1] (50 µM), -0.0704 in assay [1] (200 µM), -0.176 in assay [2] (50 µM) and -0.172 in assay [2] (200 µM).

Regarding TTC39C C97 (UniProt Q8N584), the “log2 mean competition ratio” value in assay [1] (50 µM) is -0.304; in assay [1] (200 µM) it was -0.287; in assay [2] (50 µM) it was 0.462; in assay [2] (200 µM), -0.045.

Regarding TTLL12 C370, the “log2 mean competition ratio” value in assay [1] (50 µM) is -0.00309; in assay [1] (200 µM) it was -0.161; in assay [2] (50 µM) it was -0.051; in assay [2] (200 µM), -0.144.

In the case of TUBGCP3 C388 (UniProt Q96CW5), the “log2 mean competition ratio” value in assay [1] (50 µM) is -0.139; in assay [1] (200 µM) it was 0.0965; in assay [2] (50 µM) it was -0.0652; in assay [2] (200 µM), -0.0272.

For TTC27 C299 (UniProt Q6P3X3), the “log2 mean competition ratio” value in assay [1] (50 µM) is -0.279; in assay [1] (200 µM), 0.182; in assay [2] (50 µM), -0.586; in assay [2] (200 µM) it was -0.21.
